{
  "sequences": {"note": "The chains behind the UniProt entries cited, without tags or fusion partners.", "UniProt P08684, whole entry, looked up": "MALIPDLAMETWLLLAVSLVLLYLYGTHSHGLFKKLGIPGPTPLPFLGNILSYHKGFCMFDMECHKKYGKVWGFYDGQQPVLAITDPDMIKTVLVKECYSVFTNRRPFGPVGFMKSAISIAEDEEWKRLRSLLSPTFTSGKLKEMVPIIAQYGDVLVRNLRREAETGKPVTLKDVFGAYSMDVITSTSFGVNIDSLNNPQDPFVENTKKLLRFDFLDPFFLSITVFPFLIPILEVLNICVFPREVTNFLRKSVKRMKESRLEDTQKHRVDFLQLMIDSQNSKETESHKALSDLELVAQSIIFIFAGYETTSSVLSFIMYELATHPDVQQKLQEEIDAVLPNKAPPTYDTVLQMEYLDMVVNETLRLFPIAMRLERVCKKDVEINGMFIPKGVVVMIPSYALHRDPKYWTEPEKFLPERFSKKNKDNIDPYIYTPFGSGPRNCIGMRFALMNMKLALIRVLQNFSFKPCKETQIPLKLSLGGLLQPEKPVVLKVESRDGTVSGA", "UniProt P10635, whole entry, looked up": "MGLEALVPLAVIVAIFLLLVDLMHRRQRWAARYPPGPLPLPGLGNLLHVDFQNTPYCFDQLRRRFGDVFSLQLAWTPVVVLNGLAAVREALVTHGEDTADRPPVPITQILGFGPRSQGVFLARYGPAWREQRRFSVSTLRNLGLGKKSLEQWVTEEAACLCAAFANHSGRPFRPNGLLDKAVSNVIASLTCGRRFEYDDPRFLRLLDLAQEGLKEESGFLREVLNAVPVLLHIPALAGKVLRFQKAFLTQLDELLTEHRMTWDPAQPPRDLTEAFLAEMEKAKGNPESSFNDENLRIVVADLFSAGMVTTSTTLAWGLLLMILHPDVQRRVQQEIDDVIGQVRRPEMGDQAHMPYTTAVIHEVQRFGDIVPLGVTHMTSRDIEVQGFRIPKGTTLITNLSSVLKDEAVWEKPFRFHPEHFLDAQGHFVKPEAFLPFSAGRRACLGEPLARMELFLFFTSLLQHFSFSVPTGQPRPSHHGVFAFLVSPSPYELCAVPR"},
  "source": "PubChem BioAssay (NCATS)",
  "key": {"[1]": {"assay": "Stat Signaling Pathway (AID 446);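 further: ME-180 cervical cancer cells given 40 pM IL-6 alongside compound; on the % scale 0 is the no-effect control and ±100 the full control effect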", "conditions": "ME-180 SIE beta-lactamase reporter, IL-6 stimulated, 5 h; at 7.69 µM (top of the series) unless noted", "procedure,_shortened": "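FRET read-out (405 nm excitation, 460/530 nm emission) of a beta-lactamase reporter under a STAT-inducible element in ME-180 cervical carcinoma cells. Cells with compound receive 40 pM IL-6 for 5 h. Values are normalised to AC90 stimulation and AC90 JAK-inhibitor controls.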"}, "[2]": {"assay": "qHTS Assay for Lipid Storage Modulators (AID 1519; calls by dose curve; further: on the % scale 0 is the no-effect control and ±100 the full control effect)", "conditions": "Drosophila S3 cells, BODIPY lipid droplet/cell ratio, laser cytometry, cells loaded with oleic acid; activity change, negative = inhibition: at 57.5 µM (top of the series) unless noted", "procedure,_shortened": "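Cells seeded at 5,000 per well were treated with compounds over a concentration series and loaded with oleic acid (400 uM, as added). Lipid droplet fluorescence (488 nm excitation, 500-530 nm channel) was read by laser-scanning cytometry and normalized to 20 uM Triacsin C.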"}, "[3]": {"assay": "NFAT Signaling Pathway (AID 444);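 further: carbachol stimulus at about its EC50 of 1 µM final; on the % scale 0 is the no-effect control and ±100 the full control effect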", "conditions": "Jurkat NFAT-bla M1, carbachol, beta-lactamase ratio, 5 h; at 7.69 µM (top of the series) unless noted", "procedure,_shortened": "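Jurkat cells carrying an NFAT-driven β-lactamase reporter and co-transfected muscarinic M1 receptor were treated with compound plus carbachol (1 uM final, an EC50 level) for 5 h at 37 °C. CCF4 loading followed for 1 h at RT; 460/530 nm ratio gave %activity.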"}, "[4]": {"target": "Cytochrome P450 3A4 (Homo sapiens) (UniProt P08684)", "assay": "qHTS Assay for Inhibitors and Substrates of Cytochrome P450 3A4 (AID 884; active means well fitted curve in the direction sought with a large enough effect; inconclusive means small, poorly fitted or top-dose-only effect, or another doubt; inactive means no such curve, though single readings can be large; an effect the other way counts as inactive or inconclusive; further: potency means the concentration at half of the fitted maximal effect; nearly all actives have a fitted effect of over 50% in size)", "conditions": "recombinant CYP3A4, Luciferin-PPXE luminescence; activity change, negative = inhibition: at 57.1 µM (top of the series)", "procedure,_shortened": "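Luminescent readout of luciferin produced by CYP3A4 (20 nM) dealkylation of Luciferin-PPXE, 25 uM (its KM). NADPH-driven reaction ran 60 min at RT after 10 min compound preincubation; data scaled to 57 uM ketoconazole as 100% inhibition.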"}, "[5]": {"assay": "qHTS Assay for Identification of Small Molecule Agonists for Hypoxia Response Element Signaling Pathway (AID 914; active means well fitted activation curve with a large enough effect in the signal ratio, with a control signal flat, not every such curve was filed as active; inconclusive means small, poorly fitted or top-dose-only effect, or effect the other way, or a change in a side signal; the % refers to the signal ratio; further: % of control where 0% means no effect)", "conditions": "ME-180 HRE-bla reporter, beta-lactamase ratio, CoCl2, 17 h; activation: hits give high values", "procedure,_shortened": "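Reporter activity (beta-lactamase, CCF4 460nm/530nm ratio) in HRE-bla ME-180 cells is recorded after 17 h compound exposure with EC50 CoCl2 at 37 degrees Celsius. AC50 values come from titration data.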"}, "[6]": {"target": "Cytochrome P450 3A4 (Homo sapiens) (UniProt P08684)", "assay": "qHTS Assay for Activators of Cytochrome P450 3A4 (AID 885; active means well fitted curve in the direction sought with a large enough effect; inconclusive means small, poorly fitted or top-dose-only effect, or another doubt; inactive means no such curve, though single readings can be large; an effect the other way counts as inactive or inconclusive; further: potency means the concentration at half of the fitted maximal effect; nearly all actives have a fitted effect of over 65% in size)", "procedure,_shortened": "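Luminescent readout of luciferin formed from 25 uM Luciferin-PPXE (KM level) by 20 nM CYP3A4 in 200 mM KPO4, with 60 min NADPH-driven reaction at room temperature after 10 min compound exposure. Ketoconazole (57 uM) defined 100% inhibition.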"}, "[7]": {"target": "Cytochrome P450 2D6 (Homo sapiens) (UniProt P10635)", "assay": "qHTS Assay for Inhibitors and Substrates of Cytochrome P450 2D6 (AID 891; active means well fitted curve in the direction sought with a large enough effect; inconclusive means small, poorly fitted or top-dose-only effect, or another doubt; inactive means no such curve, though single readings can be large; an effect the other way counts as inactive or inconclusive; further: potency means the concentration at half of the fitted maximal effect; nearly all actives have a fitted effect of over 60% in size)", "procedure,_shortened": "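Luminescent read-out of luciferin formed by 5 nM human CYP2D6 demethylating 30 uM Luciferin-ME EGE (Km level) over 60 min at room temperature after NADPH regeneration addition. Data normalized to full inhibition by 1.43 uM quinidine.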"}},
  "note": "This list was built around the results that the source calls inconclusive (neither active nor inactive); the mix of calls is not that of the screen. For part of these data: A potency beside an inconclusive call is a rough fit, not a confirmed value. Calls of active or inactive are those of the source. Unless noted, the call rests on the fitted dose curve; in most records, active means well fitted curve in either direction with a large enough effect (not every such curve was filed as active); inconclusive means small, poorly fitted or top-dose-only effect, or another doubt; inactive means flat fitted curve, though single readings scatter.",
  "data": [
    {"smiles": "COc1ncc2ncc(=O)n(CCC#N)c2n1", "values": [
      {"measurement": "activity, negative = inhibition", "setting": "[1]", "result": "inactive: -9.79%"},
      {"measurement": "activity change, negative = inhibition", "setting": "[2]", "result": "inconclusive: 3.78%"}
    ]},
    {"smiles": "COc1ccc(C(=O)N2CCC3(CCCN(Cc4nccs4)C3)CC2)cc1", "values": [
      {"measurement": "activity change, negative = inhibition", "setting": "[3]", "result": "inconclusive: -37% [inhibitor]"},
      {"measurement": "Potency", "setting": "[4]", "result": "inconclusive: 7.94 µM [inhibitor, partial curve]"},
      {"measurement": "activity change, negative = inhibition", "setting": "[2]", "result": "inconclusive: 5.95%"}
    ]},
    {"smiles": "N#Cc1cccc(NC(=O)N2CCCC3(CCN(C(=O)c4csnn4)CC3)C2)c1", "values": [
      {"measurement": "activity change, negative = inhibition", "setting": "[3]", "result": "inconclusive: -51.6% [inhibitor]"},
      {"measurement": "activation", "setting": "[5]", "result": "inactive: -5.53%"},
      {"measurement": "activity change, negative = inhibition", "setting": "[2]", "result": "inconclusive: 7.14%"}
    ]},
    {"smiles": "CC(=O)N1CCC[C@@]2(CCN(Cc3ccc(C#N)cc3)C2)C1", "values": [
      {"measurement": "activity, negative = inhibition", "setting": "[1]", "result": "inconclusive: 79.5% [activator]"},
      {"measurement": "Potency", "setting": "[2]", "result": "inactive"}
    ]},
    {"smiles": "O=S(=O)(c1ccccc1)N1CCC2(CC1)CN(Cc1ccccc1)C2", "values": [
      {"measurement": "activity change, negative = inhibition", "setting": "[3]", "result": "inconclusive: -70.1% [inhibitor]"},
      {"measurement": "activation", "setting": "[5]", "result": "inactive: 8.23%"},
      {"measurement": "activity change, negative = inhibition", "setting": "[2]", "result": "inconclusive: 3.84%"}
    ]},
    {"smiles": "CN(C)c1ncc2nc(-c3cc(F)cc(F)c3)c(=O)n(C)c2n1", "values": [
      {"measurement": "activity, negative = inhibition", "setting": "[1]", "result": "inconclusive: 31.5% [activator]"},
      {"measurement": "activity change, negative = inhibition", "setting": "[2]", "result": "inconclusive: 6.17%"}
    ]},
    {"smiles": "O=C(c1ccco1)N1CCC2(CC1)CCN(c1ccccn1)CC2", "values": [
      {"measurement": "activity change, negative = inhibition", "setting": "[3]", "result": "inconclusive: -51.2% [inhibitor]"},
      {"measurement": "Potency", "setting": "[6]", "result": "inconclusive: 10 µM [activator, partial curve]"},
      {"measurement": "activity change, negative = inhibition", "setting": "[2]", "result": "inconclusive: 9.76%"}
    ]},
    {"smiles": "N#Cc1ccc(CN2CCCC3(CCN(C(=O)c4cnccn4)CC3)C2)cc1", "values": [
      {"measurement": "activity change, negative = inhibition", "setting": "[3]", "result": "inconclusive: -68.6% [inhibitor]"},
      {"measurement": "activation", "setting": "[5]", "result": "inactive: -10.7%"},
      {"measurement": "activity change, negative = inhibition", "setting": "[2]", "result": "inconclusive: 4.39%"}
    ]},
    {"smiles": "CC(=O)N1CCC2(CCCN(Cc3ccccc3)C2)CC1", "values": [
      {"measurement": "activity change, negative = inhibition", "setting": "[3]", "result": "inconclusive: -54.2% [inhibitor]"},
      {"measurement": "Potency", "setting": "[7]", "result": "active: 2.51 µM"},
      {"measurement": "Potency", "setting": "[2]", "result": "inactive"}
    ]}
  ]
}
